## Library screen at single concentrations

Protein sequences, listed by entry. Tags and fused reporters are not part of them. Residues count along the entry.
UniProt Q4DA54, 1-478: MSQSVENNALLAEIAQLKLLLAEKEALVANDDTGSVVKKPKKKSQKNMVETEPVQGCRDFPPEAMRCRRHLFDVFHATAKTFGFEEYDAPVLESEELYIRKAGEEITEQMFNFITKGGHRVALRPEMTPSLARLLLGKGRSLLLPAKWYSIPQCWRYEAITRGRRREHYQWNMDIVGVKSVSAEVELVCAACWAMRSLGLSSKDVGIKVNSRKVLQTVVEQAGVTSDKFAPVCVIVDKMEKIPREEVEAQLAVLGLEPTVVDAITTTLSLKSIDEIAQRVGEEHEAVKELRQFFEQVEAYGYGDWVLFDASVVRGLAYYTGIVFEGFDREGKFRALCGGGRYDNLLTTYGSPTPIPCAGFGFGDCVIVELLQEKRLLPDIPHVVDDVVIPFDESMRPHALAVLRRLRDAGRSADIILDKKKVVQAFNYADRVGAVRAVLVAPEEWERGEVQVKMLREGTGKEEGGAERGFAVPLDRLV
UniProt P9WPC5, whole entry: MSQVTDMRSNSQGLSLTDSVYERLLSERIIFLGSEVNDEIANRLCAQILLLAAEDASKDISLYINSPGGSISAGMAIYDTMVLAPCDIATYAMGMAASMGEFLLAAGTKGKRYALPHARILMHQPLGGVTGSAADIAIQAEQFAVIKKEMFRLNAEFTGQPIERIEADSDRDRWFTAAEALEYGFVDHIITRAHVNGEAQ
UniProt P9WPC3, whole entry partner: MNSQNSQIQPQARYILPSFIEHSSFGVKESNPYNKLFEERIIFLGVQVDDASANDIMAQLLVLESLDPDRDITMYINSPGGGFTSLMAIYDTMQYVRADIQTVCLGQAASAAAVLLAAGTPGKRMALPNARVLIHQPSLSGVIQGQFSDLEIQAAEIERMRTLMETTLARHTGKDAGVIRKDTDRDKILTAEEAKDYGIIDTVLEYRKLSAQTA

Results are given as percent effect. The controls that fix the scale are not given in the record; negative values are as filed. Compounds were drawn at random from those tested, without regard to their results.

TcHisRS: 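Enzyme assay of histidyl-tRNA synthetase; the read-out is not stated. Target: Histidine-tRNA ligase, Trypanosoma cruzi CL Brener (UniProt Q4DA54). Concentration: 30 µM. Higher reads as stronger inhibition (inferred: compounds with an IC50 in retests scored well above the rest). Size under these conditions: about 69,000 compounds, about 31 of them at 50% or above in at least one test.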
ClpP1P2: 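Protease assay of ClpP1P2, read by the AMC dye that it sets free. Target: ClpP1P2, Mycobacterium tuberculosis (UniProt P9WPC5 and UniProt P9WPC3). Tested at 50 µM. Direction is inferred from only a few compounds that gave an IC50; most scored high, so higher reads as stronger inhibition. Most other retested compounds had strongly negative values. Of about 69,000 compounds tested this way, about 10 (0.015%) reached 50% or more in at least one test.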

structure	TcHisRS	ClpP1P2
CC(=O)N[C@@H]1CN(C(=O)CC2CC2)C[C@H]1O	1.88	-34.81
CCN(CC)S(=O)(=O)c1ccc(C(=O)NC(C)(C)C)cc1	-3.097	5.978
CCc1ccc(-c2cc(C(F)(F)F)nc(N3CCC(N)CC3)n2)cc1	49.22	-24.16
CCCS(=O)(=O)N1CC[C@H]2O[C@@H](c3nc(C)no3)CC[C@H]21	6.098	5.416
Cn1cc(C(=O)N2CCCC(n3cncn3)C2)ccc1=O (stereo not given)	-16.81	-17.28
Oc1cccc(CNCc2ccc(-n3cncn3)nc2)c1	8.036	-5.024
Cc1nc(N)cc(NCc2csc(N(C)C)n2)n1	17.28	-11.89
O=C(c1ccc2[nH]cnc2c1)N1CCC(COc2ccccn2)CC1	6.878	-7.777
CCN1CCO[C@@H]2CN(C(=O)c3ccc4[nH]ccc4c3)CC[C@@H]2C1	3.093	4.124
O=C(c1cnc(C2CC2)nc1O)N1CCN(Cc2ccccc2F)CC1	1.205	-9.173
O=C(NCC1CC1)[C@H]1C[C@@H]2CN(C(=O)NCc3ccccc3)C[C@H]1O2	10.74	3.975
O=C(c1ccccc1F)N1CCN(c2ccc(-n3cccc3)nn2)CC1	3.333	6.122
CC1=C(C#N)C(=O)NC(=O)/C1=C\c1c(C)nn(-c2ccc(Cl)cc2)c1O	9.249	0.9526
Cc1noc(C)c1CN1C[C@H](OCc2ccncc2)[C@H]2OCCC[C@H]21	0	-3.051
Cc1cccnc1[C@H](C)Nc1nc(-c2cccnc2)nc2c1CNC2	29.87	-1.758
CO[C@H]1C[C@@H]2CN(C(=O)Cc3ccc(C)s3)C[C@@H]2C1	8.046	-2.583
NC(=O)CCn1ccc(NC(=O)c2ccc(OCC3CC3)cc2)n1	4.124	-7.282
c1cc2c(cc1CN1CCC(Cc3noc(C4CC4)n3)CC1)OCCO2	11.11	9.698
CCN(CC)C(=O)c1nc2c(s1)CCN(C(=O)CCC(=O)OC)CC2	0	-5.719
CC(C)NC(=O)N1CCN(c2ccc(Cl)nn2)C(=O)C1	6.509	-17.98
CCc1ncnc2c1CCN(c1ncc(F)cn1)CC2	5.882	13.2
CCNC(=O)CN(CC)C(=O)c1cc(-c2cccc(Cl)c2)no1	3.03	-1.282
CNc1cc2c(nn1)CCN(C(=O)C1CCCc3ccccc31)C2 (stereo not given)	6.015	-11.57
CC(CNC(=O)c1cc(Cl)ccc1I)N1CCCC1 (stereo not given)	4.103	-1.559
CC(NC(=O)c1csnn1)c1ccc(OCC2CC2)c(F)c1 (stereo not given)	-2.5	-16.13
O=C(CS(=O)(=O)Cc1cc(Cl)c2c(c1)OCCCO2)NCC1CC1	6.286	-6.214
CCC(C(=O)NCc1nc(C)cc(C(F)(F)F)n1)n1cccn1 (stereo not given)	6.03	-8.457
CC(C)(C)OC(=O)N1CC(=O)N(Cc2ccco2)CC(O)C1 (stereo not given)	-1.124	1.98
Cc1nc(CN2C[C@@H]3CCCO[C@@H]3[C@H](N(C)C(C)C)C2)cs1	1.075	-1.001
CN1CC(=O)N(c2cnn(C)c2)CC12CCN(Cc1cccnc1)C2 (stereo not given)	4.386	-4.58
COCc1cc(NCc2cc(F)ccc2F)n2nccc2n1	3.306	-15.63
CCOCC1CCCN(C(=O)NCc2ccc(-c3ccn[nH]3)cc2)C1 (stereo not given)	1.734	-28.34
O=c1[nH]c(C2CCOC2)nc2cc(F)c(F)cc12 (stereo not given)	0	-5.525
C[C@H]1C(=O)NC[C@H]2CN(Cc3cccc(F)c3)C[C@H]21	4.327	-11.22
CN(C)C(=O)N1CCC2(CCCN(CCOc3ccccc3)C2)C1 (stereo not given)	0.4808	-6.154
Cc1noc(C)c1CN1C[C@@H]2C[C@H](C(=O)NCC3CC3)N(C)[C@@H]2C1	4.327	16.86
CN1CC(=O)N(c2cccc(F)c2)CC12CCN(Cc1ccco1)C2 (stereo not given)	6.452	4.295
Cc1nc(CNC2CC(=O)N(CCc3cccc(Cl)c3)C2)c[nH]1 (stereo not given)	-1.005	-7.175
COc1ccc(-c2nnc(SC(C)C(=O)NCC(C)C)[nH]2)c(OC)c1 (stereo not given)	4.348	-8.493
COCCC(=O)N(C)CCC1=CCN(C)CC1	14.07	22.81
CCNC(=O)CCCC(=O)N1CCc2cc(Cl)cc(Cl)c2C1	-1.345	-10.07
CN(C)C(=O)c1ccccc1NCCCOc1cccc(C#N)c1	9.574	-6.819
O=C(c1cc(Cl)c2c(c1)OCCO2)N1CCCC(n2cncn2)C1 (stereo not given)	-1.887	5.222
CC(=O)N1CCN(CC(C)(O)c2cccc(C(F)(F)F)c2)CC1 (stereo not given)	2.857	-8.928

Repeated from the top, 5 entries:

With CC(=O)N[C@@H]1CN(C(=O)CC2CC2)C[C@H]1O the screen gave TcHisRS: 1.88%; ClpP1P2: -34.81%.
With CCN(CC)S(=O)(=O)c1ccc(C(=O)NC(C)(C)C)cc1 the screen gave TcHisRS: -3.097%; ClpP1P2: 5.978%.
With CCc1ccc(-c2cc(C(F)(F)F)nc(N3CCC(N)CC3)n2)cc1 the screen gave TcHisRS: 49.22%; ClpP1P2: -24.16%.
With CCCS(=O)(=O)N1CC[C@H]2O[C@@H](c3nc(C)no3)CC[C@H]21 the screen gave TcHisRS: 6.098%; ClpP1P2: 5.416%.
With Cn1cc(C(=O)N2CCCC(n3cncn3)C2)ccc1=O (stereo not given) the screen gave TcHisRS: -16.81%; ClpP1P2: -17.28%.

Measurements from “University of Dundee, Small-Polar-MMV Screening Library” (2021), ChEMBL document CHEMBL3988442.